Assay [1] concerns E. rostratum hyphal fragments. Description: hyphal fragment fungicidal ATP content assay (PBS, 1536-well). The class given is cell-based. The following applies: Exserohilum rostratum; Table S1; Inact. = no significant activity in the primary screen; read-out: Hyphae IC50. As to the method:
(§1) Conidia and hyphae of E. rostratum were obtained as described by Richard et al., with the following modifications. Briefly, conidia were harvested from Potato Dextrose Agar (PDA) cultured media with 0.05% Tween 80, and the conidial suspension was filtered using a Cell Strainer (100 µm, BD Falcon REF 352340). After centrifugation at 700g for 10 min, the suspension was decanted and conidia were resuspended at 1×10^5 per ml in RPMI and counted in a hemocytometer. Hyphae were harvested from yeast extract peptone dextrose (YPD) culture media with 0.05% Tween 80. Hyphal fragments were sized by vortexing 15 sec twice with 0.4 mm glassbeads, and the hyphae suspension was filtered by cheese cloth twice. […]
(§2) The ATPLite assay kit, consisting of luciferase/luciferin and detergent, was used to quantitate cellular ATP levels as a marker for cell viability (Table 1). […] The assay plates were incubated at room temperature for 15 minutes before reading luminescence intensity on a ViewLux plate reader (Perkin Elmer, Waltham, MA). […]
(§3) The primary screen data and curve fitting were analyzed using software developed internally at the NIH Chemical Genomics Center (NCGC). Total signals for cellular viability (100% cellular viability) were calculated from the wells with DMSO solvent and the complete cell killing (0% cellular viability) was calculated from 46 µM amphotericin B treated wells. […]

In the next assay the test system is E. rostratum conidia. Description: conidia growth inhibition ATP content assay (RPMI, 1536-well). As to conditions: Exserohilum rostratum, Table S1; Inact. = no significant activity at the highest compound concentration (46 µM). The class given is cell-based. As to the method: as §1, §2, §3
The test system of the next assay is SH-SY5Y cells. Description: SH-SY5Y cytotoxicity counter-screen (ATP content assay). The class given is cell-based, Human. The following applies: Table S1; Inact. = no significant activity at the highest compound concentration (46 µM). The protocol:
Human neuroblastoma SH-SY5Y cell line (Catalog No. CRL-2266) was purchased from ATCC (Manassas, VA). SH-SY5Y cell line was cultured in 175-cm^2 tissue culture flasks (Costar, Cambridge, MA) with 30 ml of growth medium at 37°C in a 5% CO2 humidified atmosphere. Growth medium was made with Dulbecco's Modified Eagle Medium: Nutrient Mixture F-12 with 10% fetal bovine serum (FBS). Growth medium was replaced every other day and cells were passed at 75% confluence.
The ATPLite assay kit, consisting of luciferase/luciferin and detergent, was used to quantitate cellular ATP levels as a marker for cell viability (Table 1). For assay development, hyphal fragments or conidia in PBS were plated in a seeding density of 3,750, 7,500 and 15,000 cellular particles/well with a final volume of 5 µl/well using the Multidrop-Combi dispenser in white 1536-well plates. Conidia or hyphae fragments were incubated for 24 h at 37°C in a 5% CO2 humidified atmosphere. ATPLite detection reagents were added at 4 µl/well. The assay plates were incubated at room temperature for 15 minutes before reading luminescence intensity on a ViewLux plate reader (Perkin Elmer, Waltham, MA). Conidia suspended in RPMI medium were inoculated at concentrations of 62.5, 125 and 250 conidia/well with a final volume of 5 µl/well in white 1536-well plates. The conidia assay was developed and optimized in the same way as the hyphal assay. […]
Background: A counterscreen serves to expose hits that act by an unwanted route or on another target.

Molecules are shown by their SMILES.

What is called IC50 is the concentration that inhibits the measured activity by half. Turning to `Clc1ccc(COC(Cn2ccnc2)c2ccc(Cl)cc2Cl)cc1` (stereo not drawn) [Econazole nitrate], the half-inhibitory concentration (IC50) is 11.8 µM in assay [1] and 13.2 µM in the assay with E. rostratum conidia. For the same compound, the “SH-SY5Y IC50” value in the assay on SH-SY5Y cells is recorded as “Inact”.
